Measured values from paper PMC4503722, “Novel Phenotypic Outcomes Identified for a Public Collection of Approved Drugs from a Publicly Accessible Panel of Assays” (PLoS ONE, 2015).
Like-named read-outs stand apart in the source and are kept apart here.

What was measured:
Test in all cases: cells
Format in all cases: cell-based
[1] = system: HCT116; details: Homo sapiens
[2] = system: HCT116 cells treated with a GSK3β inhibitor; details: Homo sapiens
[3] = system: DLD-1; details: Homo sapiens
[4] = system: SW480; details: Homo sapiens
[5] = system: NCI-H716 cells; details: Homo sapiens, NCI-H716, read-out: GLP 1 Secretion
[6] = system: INS-1E cells; details: Rattus norvegicus, read-out: Insulin Secretion
[7] = system: nuclear β-catenin in C2C12 cells; details: Mus musculus, C2C12, read-out: Wnt Pathway

Row | SMILES | IC50 ([1]; HCT-116, 72 h, read-out: HCT-116 viab. IC50) [µM] | IC50 ([1]; HCT-116, read-out: Basal_Viability ATP HCT116) [µM] | IC50 ([2]; HCT-116, 72 h, read-out: HCT-116 (GSK3β) viab. IC50) [µM] | IC50 ([3]; DLD-1, 72 h, read-out: DLD-1 viab. IC50) [µM] | IC50 ([3]; DLD-1, read-out: Basal_Viability ATP DLD-1) [µM] | IC50 ([4]; SW480, 72 h, read-out: SW480 viab. IC50) [µM] | IC50 ([4]; SW480, read-out: Basal_Viability ATP SW480) [µM] | IC50 ([2]; HCT-116, read-out: GSK3b inh pretreated_Viability ATP HCT116) [µM] | EC50 [5] [µM] | EC50 [6] [µM] | EC50 [7] [µM]
1 | CNC(=O)c1ccccc1Sc1ccc2c(/C=C/c3ccccn3)n[nH]c2c1 [axitinib, reference compound] | 16.8 | 16.8 | > 20 | 4.5 | 4.53 | 5.1 | 5.1 | – | – | – | –
2 | O=C(CCCCCCC(=O)Nc1ccccc1)NO [vorinostat] | – | – | – | – | – | – | – | 1.33 | > 10 | > 10 | > 10
